According to publication PMC12624017:
Results are given in words; binding and its absence hold for the method and conditions named. Binding seen in cells or lysates may run through a third protein. Some entries that bind do so weakly or less than the wild type.

Chains of the proteins cited; added tags and fusions are not shown. Lines headed by an entry give the natural chain unless they say otherwise; changes in a name come on top.
UniProt Q8IWE2: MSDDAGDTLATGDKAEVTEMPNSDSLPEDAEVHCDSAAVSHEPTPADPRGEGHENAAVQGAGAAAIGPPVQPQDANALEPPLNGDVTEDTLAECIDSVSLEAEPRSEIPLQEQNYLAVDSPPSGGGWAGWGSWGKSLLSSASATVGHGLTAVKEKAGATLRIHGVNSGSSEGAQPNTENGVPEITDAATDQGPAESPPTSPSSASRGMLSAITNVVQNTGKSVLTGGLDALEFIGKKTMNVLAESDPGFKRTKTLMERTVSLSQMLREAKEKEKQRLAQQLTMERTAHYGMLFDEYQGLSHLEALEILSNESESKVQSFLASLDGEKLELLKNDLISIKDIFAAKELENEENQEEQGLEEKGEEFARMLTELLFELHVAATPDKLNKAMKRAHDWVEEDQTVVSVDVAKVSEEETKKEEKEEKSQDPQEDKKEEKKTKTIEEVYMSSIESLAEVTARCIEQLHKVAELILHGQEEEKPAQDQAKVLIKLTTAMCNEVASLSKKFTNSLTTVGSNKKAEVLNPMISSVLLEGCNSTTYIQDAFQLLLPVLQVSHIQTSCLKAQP
UniProt Q9D281: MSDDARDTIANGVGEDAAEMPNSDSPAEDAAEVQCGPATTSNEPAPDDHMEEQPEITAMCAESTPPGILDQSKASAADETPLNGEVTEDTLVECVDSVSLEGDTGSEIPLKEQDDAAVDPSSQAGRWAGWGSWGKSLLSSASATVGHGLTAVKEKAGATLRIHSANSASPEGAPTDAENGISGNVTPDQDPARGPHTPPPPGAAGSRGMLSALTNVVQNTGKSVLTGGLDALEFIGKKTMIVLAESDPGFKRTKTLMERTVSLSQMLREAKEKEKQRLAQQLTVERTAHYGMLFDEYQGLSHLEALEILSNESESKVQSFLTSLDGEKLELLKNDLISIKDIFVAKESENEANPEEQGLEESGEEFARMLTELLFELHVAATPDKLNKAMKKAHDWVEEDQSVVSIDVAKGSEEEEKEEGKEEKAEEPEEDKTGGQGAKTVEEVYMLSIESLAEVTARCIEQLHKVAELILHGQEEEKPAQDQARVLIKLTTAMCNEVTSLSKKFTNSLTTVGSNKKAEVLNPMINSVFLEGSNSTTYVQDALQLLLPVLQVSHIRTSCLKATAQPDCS
UniProt P26450: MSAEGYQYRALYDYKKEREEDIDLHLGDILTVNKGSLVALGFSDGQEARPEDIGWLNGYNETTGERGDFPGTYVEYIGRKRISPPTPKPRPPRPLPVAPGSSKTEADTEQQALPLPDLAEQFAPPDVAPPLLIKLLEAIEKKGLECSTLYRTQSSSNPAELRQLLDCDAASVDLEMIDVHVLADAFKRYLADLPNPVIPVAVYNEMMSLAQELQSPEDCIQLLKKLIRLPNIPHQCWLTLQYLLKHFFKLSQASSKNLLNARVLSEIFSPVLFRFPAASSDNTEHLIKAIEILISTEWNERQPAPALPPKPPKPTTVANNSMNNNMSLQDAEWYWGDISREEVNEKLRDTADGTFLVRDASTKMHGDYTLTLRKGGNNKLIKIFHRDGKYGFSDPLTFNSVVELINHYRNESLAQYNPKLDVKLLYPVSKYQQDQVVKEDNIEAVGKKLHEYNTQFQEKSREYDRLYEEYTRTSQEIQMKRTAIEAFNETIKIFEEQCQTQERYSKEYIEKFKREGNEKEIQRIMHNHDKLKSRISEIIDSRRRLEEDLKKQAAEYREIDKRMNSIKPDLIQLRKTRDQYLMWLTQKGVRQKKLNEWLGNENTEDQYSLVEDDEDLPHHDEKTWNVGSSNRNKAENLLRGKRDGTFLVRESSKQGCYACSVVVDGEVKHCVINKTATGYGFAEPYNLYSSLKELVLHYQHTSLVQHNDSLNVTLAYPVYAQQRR
UniProt P27986: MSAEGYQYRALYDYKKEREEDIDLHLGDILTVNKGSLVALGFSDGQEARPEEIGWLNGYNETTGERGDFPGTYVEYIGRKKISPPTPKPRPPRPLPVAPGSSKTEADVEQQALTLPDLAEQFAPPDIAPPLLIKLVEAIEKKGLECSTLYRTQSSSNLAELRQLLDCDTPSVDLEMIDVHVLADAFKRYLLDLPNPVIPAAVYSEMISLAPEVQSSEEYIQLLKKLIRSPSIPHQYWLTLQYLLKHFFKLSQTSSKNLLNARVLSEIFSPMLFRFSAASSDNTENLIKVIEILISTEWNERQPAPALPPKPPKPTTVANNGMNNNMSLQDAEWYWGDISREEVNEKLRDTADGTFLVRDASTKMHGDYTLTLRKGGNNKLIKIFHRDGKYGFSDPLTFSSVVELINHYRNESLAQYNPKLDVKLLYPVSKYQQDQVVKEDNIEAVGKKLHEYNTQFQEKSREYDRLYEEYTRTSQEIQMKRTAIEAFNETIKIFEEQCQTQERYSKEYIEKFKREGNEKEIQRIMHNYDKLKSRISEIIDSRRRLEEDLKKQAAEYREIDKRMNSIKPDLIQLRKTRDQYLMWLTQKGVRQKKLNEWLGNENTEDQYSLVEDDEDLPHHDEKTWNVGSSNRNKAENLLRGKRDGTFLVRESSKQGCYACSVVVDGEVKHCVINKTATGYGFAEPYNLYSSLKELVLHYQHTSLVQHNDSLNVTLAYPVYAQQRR
UniProt Q8R0K9: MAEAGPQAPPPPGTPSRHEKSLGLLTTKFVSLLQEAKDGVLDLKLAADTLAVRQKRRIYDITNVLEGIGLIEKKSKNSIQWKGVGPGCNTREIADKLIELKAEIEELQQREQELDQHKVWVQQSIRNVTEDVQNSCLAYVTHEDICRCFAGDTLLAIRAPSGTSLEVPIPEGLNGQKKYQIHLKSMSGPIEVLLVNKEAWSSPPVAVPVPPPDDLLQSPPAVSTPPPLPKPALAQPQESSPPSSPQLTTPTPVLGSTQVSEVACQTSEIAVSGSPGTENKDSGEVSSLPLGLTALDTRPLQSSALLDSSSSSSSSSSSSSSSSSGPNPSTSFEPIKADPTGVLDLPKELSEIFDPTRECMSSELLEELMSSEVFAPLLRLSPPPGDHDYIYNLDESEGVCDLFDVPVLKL
UniProt Q16254: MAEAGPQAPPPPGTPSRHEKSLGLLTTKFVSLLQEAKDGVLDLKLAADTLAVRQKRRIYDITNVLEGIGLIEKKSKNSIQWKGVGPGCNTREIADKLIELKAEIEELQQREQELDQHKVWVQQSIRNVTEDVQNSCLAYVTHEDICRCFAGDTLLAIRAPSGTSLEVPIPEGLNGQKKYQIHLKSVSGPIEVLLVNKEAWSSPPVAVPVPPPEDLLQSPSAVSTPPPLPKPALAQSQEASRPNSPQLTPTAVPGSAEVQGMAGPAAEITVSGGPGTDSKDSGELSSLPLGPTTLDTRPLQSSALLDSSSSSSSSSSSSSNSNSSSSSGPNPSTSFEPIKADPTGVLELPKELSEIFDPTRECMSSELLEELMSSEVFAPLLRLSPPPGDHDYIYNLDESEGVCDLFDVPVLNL

Legend:
[1] = biological target: FAM114A1-Myc (human (cDNA from HEK293T)) (UniProt Q8IWE2); test: co-IP; 293T cells cotransfected with the indicated plasmids, lysed 24 h after transfection; anti-Myc or anti-GFP precipitation as indicated; western blot
[2] = biological target: family with sequence similarity 114 member A1 (FAM114A1), endogenous in Py8119 cells (mouse (endogenous in Py8119)) (UniProt Q9D281); test: co-IP; Py8119 tumor cell lysates (IP lysis buffer: 20 mM Tris pH 7.4, 0.15 M NaCl, 1 mM EDTA, 1 mM EGTA, 1% Triton X-100) precipitated with anti-FAM114A1, anti-p85α, anti-E2F4 or IgG control overnight at 4 °C, protein A/G magnetic beads; western blot
[3] = biological target: p85α, endogenous in Py8119 cells (mouse (endogenous in Py8119)) (UniProt P26450); test: co-IP; Py8119 cells stably expressing FAM114A1 (OE) or vector; p110α that interacted with p85α detected by western blot and normalised to total p110α
[4] = biological target: p85α, wild type, transfected in 293T cells (human (cDNA from HEK293T)) (UniProt P27986); test: co-IP; competition: FAM114A1 recombinant protein in the indicated amounts added for 2 h to beads that held the p85α/p110α co-IP from cotransfected 293T cells; washed; western blot; only the binder purified

Row | binding [1] | binding [2] | Substance | also measured
1 |  | binds | E2F Transcription Factor 4 (E2F4), endogenous in Py8119 cells (from UniProt Q8R0K9 1-410) | 
2 |  | binds | p85α, endogenous in Py8119 cells (from UniProt P26450 1-724) | 
3 | binds |  | p85α, wild type, transfected in 293T cells (from UniProt P27986 1-724) | 

Second part, the substance before the results:

Row | Substance | binding [1] | binding [2] | also measured
4 | E2F4-GFP, wild type (from UniProt Q16254 1-413) | binds |  | 
5 | FAM114A1 stably overexpressed in Py8119 cells (from UniProt Q8IWE2 1-563) |  |  | binding [3]: binds
6 | GST-FAM114A1 recombinant protein (from UniProt Q8IWE2 1-563) |  |  | binding [4]: binds
